Data as given in PubChem BioAssay AID652243 (Drosophila RNAi Screening Center, 2013).
The screen tested about 24,000 reagents; below is a random part of those with a known target gene and a result. In the full data, 246 (1%) got an active call. 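Plates not normalised; calls are printed but the firefly/Renilla ratio behind them is not deposited; fold cut for lowering reported inconsistently.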 Raw values vary from plate to plate and are shown uncorrected. Names joined by + are all predicted targets of the reagent. No sequences are given here. Not given: the amount of reagent.

Purpose: 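Fly genes required for human androgen receptor driven transcription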 (primary screen)
System: Drosophila S2R+ cells
Reagent: long dsRNA against Drosophila genes
Time to read-out: 72 h (48 h, then 24 h hormone)
Conditions: synthetic androgen R1881 at 10 nM for 24 h
Detection: 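Per-well raw luminescence of the androgen-driven firefly reporter and of the Renilla control, two replicates each, without normalisation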
Scale: firefly reporter light: higher = more light from androgen-responsive reporter; Renilla control light: higher = more constitutive control signal (cell number, transfection)
Hit rule: 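Across duplicate plates, a knock-down whose log firefly/Renilla ratio shifted a set fold down or up from the GFP/LacZ control mean was a hit; the downward cut appears as both 1.5 and 3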
Meaning of the calls: active = hit: reporter lowered or raised; inactive = no hit

The first 5 records as a preview:
Target gene,DRSC id,"firefly reporter light, replicate 1","firefly reporter light, replicate 2","Renilla control light, replicate 1","Renilla control light, replicate 2",Call
D19A,DRSC11133,6.74e5,5.90e5,6.29e5,1.05e6,inactive
D19A,DRSC26967,4.83e5,3.48e5,8.43e5,3.84e5,inactive
CG30356,DRSC05119,1.04e5,1.65e5,2.02e5,3.29e5,inactive
gry,DRSC08028,1.38e5,1.87e5,3.70e5,5.58e5,inactive
gry,DRSC08518,8.62e5,1.32e6,1.95e6,2.07e6,inactive

The list itself, from the start:
Target gene,DRSC id,"firefly reporter light, replicate 1","firefly reporter light, replicate 2","Renilla control light, replicate 1","Renilla control light, replicate 2",Call
D19A,DRSC11133,6.74e5,5.90e5,6.29e5,1.05e6,inactive
D19A,DRSC26967,4.83e5,3.48e5,8.43e5,3.84e5,inactive
CG30356,DRSC05119,1.04e5,1.65e5,2.02e5,3.29e5,inactive
gry,DRSC08028,1.38e5,1.87e5,3.70e5,5.58e5,inactive
gry,DRSC08518,8.62e5,1.32e6,1.95e6,2.07e6,inactive
eloF,DRSC15162,84087,99369,1.70e6,2.12e6,inactive
eloF,DRSC25406,8.90e5,1.16e6,8.03e5,8.02e5,inactive
Gss1 + Gss2,DRSC20008,4.45e5,3.75e5,2.96e6,2.70e6,inactive
Gss1 + Gss2,DRSC21539,7.26e5,6.36e5,75078,67366,inactive
Scox,DRSC03117,2.11e5,1.08e5,1.95e6,1.16e6,inactive
Scox,DRSC26366,4.60e5,4.44e5,5.51e5,6.06e5,inactive
Pop1,DRSC17739,93441,1.21e5,5.67e5,6.51e5,inactive
lbe,DRSC16985,2.72e5,2.20e5,3.39e6,3.12e6,inactive
lbe,DRSC23597,3.61e5,2.57e5,5.13e5,4.12e5,inactive
CG7382,DRSC03052,8.02e5,9.40e5,1.92e6,2.06e6,inactive
CG7382,DRSC27512,1.68e5,1.78e5,5.15e5,5.14e5,inactive
Ucp4C,DRSC03132,2.23e5,2.87e5,1.57e6,2.30e6,inactive
Ucp4C,DRSC27836,4.25e5,4.11e5,2.98e5,6.32e5,inactive
CG42258,DRSC19741,5.64e5,5.79e5,2.98e6,3.14e6,inactive
CG42258,DRSC23161,5.99e5,7.71e5,1.11e6,1.83e6,inactive
CG42258,DRSC27710,4.99e5,4.80e5,7.43e5,9.28e5,inactive
CG42258,DRSC28451,4.11e5,4.77e5,5.28e5,1.16e6,inactive
SmB,DRSC03437,9.79e5,1.24e6,2.03e6,2.66e6,inactive
SmB,DRSC26259,2.40e5,2.42e5,6.54e5,8.81e5,inactive
Slh,DRSC00407,1.46e5,1.91e5,1.01e6,1.35e6,inactive
Slh,DRSC00789,87852,74420,7.04e5,7.58e5,inactive
Slh,DRSC27448,2.37e5,3.20e5,7.67e5,8.01e5,inactive
CG33281,DRSC00421,91742,73179,7.07e5,5.55e5,inactive
eIF2A,DRSC11825,45730,56231,3.30e5,4.35e5,inactive
CG18131,DRSC22983,7.81e5,8.48e5,1.17e6,1.13e6,inactive
Or59a,DRSC04631,3.11e5,3.17e5,2.28e6,1.79e6,inactive
Rpp14b,DRSC15063,1.91e5,2.14e5,2.08e6,2.91e6,inactive
APP-BP1,DRSC10920,3.29e5,1.96e5,3.63e6,3.28e6,inactive
nerfin-2,DRSC14547,1.14e5,1.86e5,2.22e6,1.80e6,inactive
nerfin-2,DRSC28542,5.20e5,6.41e5,5.24e5,9.80e5,inactive
CG31550,DRSC12197,1.10e5,1.15e5,2.56e6,1.88e6,inactive
CG31550,DRSC12198,50317,42025,4.33e5,3.72e5,inactive
CG31550,DRSC29447,8.66e5,7.70e5,9.44e5,9.44e5,inactive
CG14743,DRSC06479,3.26e5,2.59e5,1.69e6,1.29e6,inactive
coro,DRSC05007,8.98e5,6.50e5,1.48e6,1.18e6,inactive
coro,DRSC21417,6.80e5,7.22e5,2.08e6,2.15e6,inactive
